Each number is a percent effect as filed.
The record does not define 0% and 100%; most values in the screen are far below 50% and negative numbers occur (in some assays of this library far below -100).
Compounds were drawn at random from those tested, without regard to their results.
A dash means the value is not listed here; it may have been measured.

A: 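Whole-cell assay for inhibitors of Mycobacterium tuberculosis growth, labelled Cornell in the record; the read-out is not stated. The concentration is filed as 10 mM, unlikely as a test dose, so the dose is not known. Higher means stronger inhibition (inferred from two other growth screens of the library). Of about 53,000 compounds tested this way, about 900 (1.7%) reached 50% or more in at least one test.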
B: 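Assay on Mycobacterium tuberculosis, filed only as a heat shock assay from Cornell; the read-out is not stated. The concentration is filed as 10 mM, unlikely as a test dose, so the dose is not known. The record gives no direction; compounds that gave an IC50 in retests scored well above the rest, so higher reads as stronger inhibition. Size under these conditions: about 69,000 compounds, about 930 of them at 50% or above in at least one test.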

structure | A | B
CNC(=O)[C@@H](c1ccccc1)N1CCC[C@H]1C(=O)NC1CCCCC1.Cl | - | -27.58%
Cc1ccc2c(n1)N(CC(C)C)CCN(C(=O)Cc1ccccn1)C2.O=C(O)C(F)(F)F.O=C(O)C(F)(F)F | -39.84% | 3.272%
CS(=O)(=O)NCc1ncn2c1CN(CCN1CCCC1)CCC2 | -33.27% | -15.31%
COCc1noc(CN2CCCCC2CCc2cccs2)n1 (stereo not given) | - | -8.254%
CCn1cc(S(=O)(=O)N2CCCCCC2c2cc(C)no2)cn1 (stereo not given) | 17.51% | -17.41%
CC(C)(C)OC(=O)NC1CCCN(Cc2cccs2)C1 (stereo not given) | -13.32% | -11.97%
COc1ccc(C(O)C(=O)N2CCC(c3nccn3C(C)C)CC2)cc1 (stereo not given) | -14.92% | -27.82%
Cn1ccc(C(=O)N2CCOC(c3ccccn3)C2)cc1=O (stereo not given) | -34.44% | -7.688%
Cn1c(C(=O)N2CCC(C3OCCO3)CC2)c(Cl)c2ccccc21 | 14.55% | 7.978%
Cc1nc(CN2CCC(c3cc(N4CCCC4)ncn3)CC2)cs1 | -12.71% | 9.297%
COc1ccc(NC(=O)CCN2CC=C(c3cnn(C)c3)CC2)c(C)c1 | - | 16.72%
O=C(CCCNCc1ccc(Cl)c2cccnc12)NC1CC1 | - | -18.18%
Cc1cc(NCC2(O)CCOCC2)nc2ccccc12 | 13.67% | -17.7%
N#Cc1cccc(N2CCCC3(C2)CN(c2nncs2)CCO3)c1 (stereo not given) | 7.159% | -0.5109%
COC(=O)C1CCN(C(=O)Nc2cc(-n3cccc3)ccc2F)CC1 | -7.765% | 8.887%
Cl.[H][C@@]12OCCC[C@]1([H])NC[C@@H]2NC(=O)c1ccno1 | 32.36% | -11.26%
Cc1ncc(CNCC(C)O)c2cc(C(=O)c3ccc(Br)cc3)oc12.Cl (stereo not given) | 6.541% | 10.59%
Cc1cc(NC(C)c2nnn[nH]2)n2nc(C)c(C)c2n1 (stereo not given) | -7.125% | -13.73%
Cc1ccc2cc(C3(O)CCN(C(=O)[C@@H]4CCCCN4)CC3)ccc2n1 | 14.24% | -20.26%
CCC1COCCN1C(=O)NCc1nccn1Cc1ccccc1 (stereo not given) | 8.206% | -21.62%
CCCNC(=O)CN1CCN(c2nc(CC)ns2)CC1 | 14.73% | -7.17%
CC(=O)Nc1ccc(Cl)c(C(=O)N(C)C(C)c2nccs2)c1 (stereo not given) | 15.96% | -2.14%
CCCn1ccnc1CN1C[C@@H](NC(C)=O)[C@H](c2ccc(C)cc2)C1 | 5.397% | 0.5383%
Nc1nccc(C2CCN(c3cnccn3)C2)n1 (stereo not given) | -25.94% | -17.05%
O=C(O)CCCNC(=O)N1CCc2c([nH]c3ccc(Cl)cc23)C1 | 13.34% | 6.533%
CCN(CC)C(CNC(=O)c1ccc(S(C)(=O)=O)cc1)c1ccco1 (stereo not given) | 27.39% | 8.114%
COCc1nc(C2CCN(Cc3nccn3C)CC2)no1 | -13.21% | -3.888%
Cn1cnnc1C1CCCN(C(=O)NCCCn2cccn2)C1 (stereo not given) | - | 2.666%
CCN(Cc1nc2c(cnn2C)c(=O)[nH]1)c1cc(C)ccc1C | 11.22% | 11.93%
Cc1cc(N2CCC(O)(C(=O)O)CC2)nc2ccccc12 | - | -2.442%
Cc1nnc2n1CCN(CC(O)CN1CCC(C)CC1)C2 (stereo not given) | 5.142% | 2.978%
CN(C)S(=O)(=O)N1CCC(c2c(C(N)=O)sc3ccccc23)C1 (stereo not given) | 12.29% | 6.702%
COC(=O)c1cc2n(n1)CCN(C(=O)c1csc(CN(C)C)n1)C2 | 11.93% | 17.46%
COc1cc([C@@H]2N[C@H](c3nccs3)Cc3ccsc32)cc(OC)c1OC | 44.3% | -5.187%
COC(=O)c1ccc(CNC(C)(C)c2ccccc2OC)o1 | -31% | -4.584%
CCOC1COC2(CCN(S(=O)(=O)c3ccc(F)cc3)CC2)C1 (stereo not given) | 0.6698% | -1.994%
NC(=O)CC1CCCCN1C(=O)c1cccc(C(F)(F)F)c1 (stereo not given) | 1.071% | 1.537%
CN1CC(=O)N(c2cccc(F)c2)CC12CCN(Cc1cccnc1)C2.O=C(O)C(F)(F)F.O=C(O)C(F)(F)F.O=C(O)C(F)(F)F (stereo not given) | 13.92% | -6.663%
O=C(O)C(F)(F)F.[H][C@@]12CCN(CC3CCOCC3)C[C@]1(C(=O)NCc1ccco1)CCO2 | 17.52% | -2.497%
O=c1[nH]c2ccccc2c(=O)n1Cc1nnnn1C1CC1 | -11.9% | 6.221%
Cc1cnn(C(C)C2CC2)c1NC(=O)c1ccco1 (stereo not given) | - | 19.37%
[H][C@]12CC[C@@]3(N=C(C)N(C)C3=O)[C@@]1([H])CN(Cc1ccccc1F)C2 | 10.98% | 10.71%
NC(=O)c1cccc(OCCC(=O)NC2CCc3c(F)cccc32)c1 (stereo not given) | 11.04% | 5.247%
Cc1csc(C2CCCN(C(=O)c3cnc[nH]3)C2)n1 (stereo not given) | 1.149% | 5.937%
CC(=O)NCCCSC1CCN(c2c(F)cccc2F)C1=O (stereo not given) | -2.237% | -12.45%
O=C(O)C(F)(F)F.O=C(O)C(F)(F)F.[H][C@@]12CCN(Cc3ccccn3)[C@]1([H])CC[C@@H](C(=O)N(C)C)O2 | 21.93% | 1.876%
CCN(CC)S(=O)(=O)N(C)Cc1ccncc1 | - | -16.24%
COc1ccccc1OC1(C(=O)O)CCN(c2nccnc2OC)CC1 | 14.27% | -3.116%
Cc1cccnc1CNCC1(O)CCCN(Cc2ccc(F)cc2)C1=O (stereo not given) | 25.87% | -1.315%
Cc1ccccc1CN1CCC(CNc2ncnc3c2CCNCC3)C1 (stereo not given) | -24.17% | -14.66%
CCn1c(C2CCCN(Cc3cc(OC)cc(OC)c3)C2)nn(C)c1=O (stereo not given) | - | 0.5677%
Cc1nonc1CNC(=O)C(C)Oc1cccc(F)c1 (stereo not given) | 53.11% | -3.326%
CSCCC(C)NC(=O)N(C)Cc1cc(Cl)cn1C (stereo not given) | -7.688% | 12.84%
O=C(O)C(F)(F)F.[H][C@]12CCCN(Cc3cccs3)[C@@]1([H])CN(C(=O)c1ccco1)C2 | -6.346% | -13.3%
Cc1cc(-n2cccn2)ccc1CN1CCC(O)(CN2CCCCC2)C1 (stereo not given) | 8.949% | -10.72%
O=C(COc1ccc(F)cc1)N1CCCSCC1CN1CCOCC1 (stereo not given) | 1.637% | -5.425%
CCc1nc(CN2CCCN(C(=O)CC(F)(F)F)CC2)cs1 | - | 0.1733%
Cc1nc(CCCNC(=O)c2c(F)cc(F)cc2F)n[nH]1 | 12.31% | 11.19%
Cn1ccnc1CN1CCC2(CC1)CCN(c1cncnc1)C2=O.O=C(O)C(F)(F)F | -14.64% | -5.603%
[H][C@@]12C[C@H](C(=O)NCc3ccco3)CN(C(=O)c3ccnnc3)[C@]1([H])CCO2 | 42.81% | -25.94%
CCN1CCN(c2ccc(F)cc2C(C)NCc2nc(C)no2)CC1 (stereo not given) | - | 2.282%
CC(C(=O)O)n1nc(C(F)(F)F)c(Cl)c1C1CC1 (stereo not given) | 26.04% | -3.942%
Cc1c(C)n2c(SCC(=O)N3CCC(C)CC3)nnc2[nH]c1=O | 24.7% | 3.571%
COc1cccnc1-c1ccc(F)c2c1OC(CN)C2 (stereo not given) | -19.41% | -14.02%
Cc1cc(CCC(N)=O)cc(C2CCCN2Cc2ccnn2C)n1 (stereo not given) | -11.31% | 8.013%
O=C(CCn1cncn1)N1CC[C@@H](c2ccc3ccccc3c2)[C@H](O)C1 | 12.23% | 8.345%
O=C(C1CC=CC1)N1CCC2(CC1)OCCO2 | 1.455% | 14.55%
Cc1nc(CN2CC(CCCc3ccccn3)(C(=O)N(C)C)C2)co1 | 3.195% | -5.479%
CCNc1cc2c(nn1)CCN(C(=O)c1ccc(-n3cccn3)nc1)C2 | -1.889% | -0.7029%
CCNC(=O)[C@@H]1C[C@H](N)CN1Cc1ccc2cccc(Cl)c2n1 | 25.12% | 24.27%

Data taken from ChEMBL document CHEMBL3988442, “University of Dundee, Small-Polar-MMV Screening Library” (2021).